Data as given in PubChem BioAssay AID1259254 (NCATS, 2017).
Here is one part, drawn at random, of about 59,000 reagents. About 1,550 of them (2.6%) were called active. 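G2 share is only a proxy for re-replication; each gene was hit by three separate siRNAs, and active genes were retested.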 The numbers tell different reagents against one gene apart. Further read-outs or replicates are left out here. Not given: the amount of reagent.

Test: 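Finding genes that stop cells copying their DNA twice in one cycle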 (primary screen)
System: human HCT116 colorectal cancer cells
Knock-down reagent: single siRNA against human genes
Timing: 3 days
Measurement: 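Imaged Hoechst DNA stain sorts each cell into a cycle phase by DNA amount; per plate, G2 fraction set to 0% for non-targeting and 100% for GMNN siRNA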
Direction: G2 robust z-score and G2 cells, % of GMNN control: higher = more G2 cells, more excess DNA replication
Call rule: 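An siRNA counts as active if its G2 robust z-score lies at least 5 MADs above the screen median; here such calls match roughly 38% of GMNN control or more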

no.	gene	siRNA no.	G2 robust z-score	G2 cells, % of GMNN control	Outcome
1	TRAF3IP2 (GeneID 10758)	1	-0.466	-0.308	inactive
2	TRAF3IP2 (GeneID 10758)	2	0.623	7.35	inactive
3	TRAF3IP2 (GeneID 10758)	3	1.35	12.5	inactive
4	BTBD18 (GeneID 643376)	1	-0.648	-1.59	inactive
5	BTBD18 (GeneID 643376)	2	0.134	3.91	inactive
6	BTBD18 (GeneID 643376)	3	0.279	4.93	inactive
7	RPN2 (GeneID 6185)	1	5.82	43.9	active
8	RPN2 (GeneID 6185)	2	-0.957	-3.77	inactive
9	RPN2 (GeneID 6185)	3	-0.588	-1.17	inactive
10	NDUFA13 (GeneID 51079)	1	-0.924	-3.53	inactive
11	NDUFA13 (GeneID 51079)	2	-0.387	0.246	inactive
12	NDUFA13 (GeneID 51079)	3	-0.156	1.87	inactive
13	FAM110A (GeneID 83541)	1	-0.486	-0.454	inactive
14	FAM110A (GeneID 83541)	2	-1.06	-4.48	inactive
15	FAM110A (GeneID 83541)	3	0.0599	3.39	inactive
16	NFIX (GeneID 4784)	1	-0.572	-1.06	inactive
17	NFIX (GeneID 4784)	2	2.59	21.2	inactive
18	NFIX (GeneID 4784)	3	3.65	28.7	inactive
19	ANKRD50 (GeneID 57182)	1	-0.395	0.191	inactive
20	ANKRD50 (GeneID 57182)	2	-0.154	1.88	inactive
21	ANKRD50 (GeneID 57182)	3	-0.302	0.846	inactive
22	PPP1CA (GeneID 5499)	1	1.22	11.6	inactive
23	PPP1CA (GeneID 5499)	2	1.04	10.3	inactive
24	PPP1CA (GeneID 5499)	3	1.65	14.6	inactive
25	CD72 (GeneID 971)	1	1.55	13.9	inactive
26	CD72 (GeneID 971)	2	-0.277	1.02	inactive
27	CD72 (GeneID 971)	3	-0.0582	2.56	inactive
28	FPR3 (GeneID 2359)	1	-0.278	1.01	inactive
29	FPR3 (GeneID 2359)	2	-0.889	-3.29	inactive
30	FPR3 (GeneID 2359)	3	3.36	26.6	inactive
31	SLC33A2 (GeneID 113655)	1	-0.181	1.69	inactive
32	SLC33A2 (GeneID 113655)	2	0.654	7.57	inactive
33	SLC33A2 (GeneID 113655)	3	-0.868	-3.14	inactive
34	LRRD1 (GeneID 401387)	1	-0.88	-3.22	inactive
35	LRRD1 (GeneID 401387)	2	0.743	8.2	inactive
36	LRRD1 (GeneID 401387)	3	-0.94	-3.64	inactive
37	CDK5R1 (GeneID 8851)	1	8.33	61.6	active
38	CDK5R1 (GeneID 8851)	2	1.99	17	inactive
39	CDK5R1 (GeneID 8851)	3	1.11	10.8	inactive
40	LGALS3 (GeneID 3958)	1	-1.16	-5.2	inactive
41	LGALS3 (GeneID 3958)	2	-0.395	0.185	inactive
42	LGALS3 (GeneID 3958)	3	-0.472	-0.352	inactive
43	IER3 (GeneID 8870)	1	-1	-4.09	inactive
44	IER3 (GeneID 8870)	2	1.04	10.3	inactive
45	IER3 (GeneID 8870)	3	-0.423	-0.00537	inactive
46	B3GALNT1 (GeneID 8706)	1	-0.799	-2.66	inactive
47	B3GALNT1 (GeneID 8706)	2	-0.509	-0.611	inactive
48	B3GALNT1 (GeneID 8706)	3	0.921	9.45	inactive
49	PHF10 (GeneID 55274)	1	3.67	28.8	inactive
50	PHF10 (GeneID 55274)	2	2.9	23.4	inactive
51	PHF10 (GeneID 55274)	3	-0.759	-2.37	inactive
52	C5 (GeneID 727)	1	0.4	5.78	inactive
53	C5 (GeneID 727)	2	-0.509	-0.613	inactive
54	C5 (GeneID 727)	3	7.53	56	active
55	APOLD1 (GeneID 81575)	1	0.275	4.9	inactive
56	APOLD1 (GeneID 81575)	2	3	24.1	inactive
57	APOLD1 (GeneID 81575)	3	-0.672	-1.76	inactive
58	SNRNP27 (GeneID 11017)	1	-1	-4.1	inactive
59	SNRNP27 (GeneID 11017)	2	-0.118	2.14	inactive
60	SNRNP27 (GeneID 11017)	3	0.881	9.17	inactive
61	RSPH10B (GeneID 222967)	1	-0.548	-0.891	inactive
62	RSPH10B (GeneID 222967)	2	-0.446	-0.174	inactive
63	RSPH10B (GeneID 222967)	3	0.622	7.34	inactive
64	PSKH1 (GeneID 5681)	1	-0.404	0.124	inactive
65	PSKH1 (GeneID 5681)	2	-0.25	1.21	inactive
66	PSKH1 (GeneID 5681)	3	-0.749	-2.3	inactive
67	STOML3 (GeneID 161003)	1	4.05	31.4	inactive
68	STOML3 (GeneID 161003)	2	0.551	6.84	inactive
69	STOML3 (GeneID 161003)	3	-0.517	-0.667	inactive
70	SYN3 (GeneID 8224)	1	1.1	10.7	inactive
71	SYN3 (GeneID 8224)	2	2.35	19.5	inactive
72	SYN3 (GeneID 8224)	3	-0.917	-3.49	inactive
73	GSTM5 (GeneID 2949)	1	0.583	7.07	inactive
74	GSTM5 (GeneID 2949)	2	-1.41	-6.95	inactive
75	GSTM5 (GeneID 2949)	3	0.105	3.71	inactive
76	ACADL (GeneID 33)	1	0.137	3.93	inactive
77	ACADL (GeneID 33)	2	0.51	6.56	inactive
78	ACADL (GeneID 33)	3	-1.03	-4.27	inactive
79	MMP8 (GeneID 4317)	1	0.0499	3.32	inactive
80	MMP8 (GeneID 4317)	2	0.00569	3.01	inactive
81	MMP8 (GeneID 4317)	3	0.456	6.18	inactive
82	MAP1LC3B (GeneID 81631)	1	-0.548	-0.886	inactive
83	MAP1LC3B (GeneID 81631)	2	-0.654	-1.64	inactive
84	MAP1LC3B (GeneID 81631)	3	0.285	4.98	inactive
85	EXTL1 (GeneID 2134)	1	-0.871	-3.16	inactive
86	EXTL1 (GeneID 2134)	2	1.21	11.5	inactive
87	EXTL1 (GeneID 2134)	3	-0.627	-1.45	inactive
